In patent publication US7205273B2 (The University of British Columbia, priority 1996, dated 2007):

Assay: peptide made by a vendor
Conditions: whole synthesis, amino acid analysis, mass spectrometry and HPLC

Ac-GLFEAIAGFIENGWEGMIDGK
final HPLC purity: greater than 95%
